These are yes or no findings as the source states them, for the method shown. Some entries that bind do so weakly or less than the wild type.
Molecular target: T1, LIN-35 (C. elegans) (UniProt G5EDT1)
T1 sequence (looked up): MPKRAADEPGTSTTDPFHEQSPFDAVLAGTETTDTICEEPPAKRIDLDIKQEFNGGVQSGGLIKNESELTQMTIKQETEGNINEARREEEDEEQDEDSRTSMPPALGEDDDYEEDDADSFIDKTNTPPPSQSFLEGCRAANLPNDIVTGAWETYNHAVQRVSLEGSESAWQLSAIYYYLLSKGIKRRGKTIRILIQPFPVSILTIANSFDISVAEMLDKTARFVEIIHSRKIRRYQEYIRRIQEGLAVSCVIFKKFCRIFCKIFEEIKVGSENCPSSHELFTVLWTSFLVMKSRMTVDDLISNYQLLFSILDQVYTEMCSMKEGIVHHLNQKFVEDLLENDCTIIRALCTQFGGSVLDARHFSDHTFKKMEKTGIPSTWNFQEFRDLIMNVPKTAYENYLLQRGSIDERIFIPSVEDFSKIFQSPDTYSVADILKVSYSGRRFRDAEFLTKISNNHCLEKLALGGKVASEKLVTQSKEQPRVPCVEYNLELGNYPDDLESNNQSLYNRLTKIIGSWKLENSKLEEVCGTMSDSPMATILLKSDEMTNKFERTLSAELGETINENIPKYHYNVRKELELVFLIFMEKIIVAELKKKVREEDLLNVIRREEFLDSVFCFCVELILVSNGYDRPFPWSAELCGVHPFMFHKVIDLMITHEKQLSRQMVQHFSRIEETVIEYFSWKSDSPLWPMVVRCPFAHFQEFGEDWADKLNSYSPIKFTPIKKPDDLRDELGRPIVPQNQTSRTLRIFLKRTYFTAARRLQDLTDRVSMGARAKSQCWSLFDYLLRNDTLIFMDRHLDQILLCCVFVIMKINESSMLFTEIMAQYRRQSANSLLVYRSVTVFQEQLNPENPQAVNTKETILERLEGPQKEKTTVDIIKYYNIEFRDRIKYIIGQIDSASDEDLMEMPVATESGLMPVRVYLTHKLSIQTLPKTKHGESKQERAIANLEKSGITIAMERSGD
Assay: yeast two-hybrid screen, LIN-35 as bait

B1: LIN-8 polypeptide (protein)
chain: MSKIKTHSTGSKRTVPFYKLPPPVPLPPLPPPDPTRYFSTEKYIALSKDEKFKFDDYDVNDETLKKVVLNEIGKCPDIWSSRSQAAIMEHYPIVATETYRRTGLLLSIKSLKQIYKCGKDNLRNRLRVAIVSKRLTPAQVEAYMWRWEFYGFIRYYRDYTQRWEADLLKDLDVVLGLEARRASKNMEKVDSGELMEPMEPMDSTMDEMCVEEEPYEETGSNWSDPAPEPSQSKSQSPEAKYPQAYLLPEADEVYNPDDFYQEEHESASNAMYRIAFSQQYGGGGSPAVQKPVTFSAQPAPAPVREAPSPVVENVSSSSFTPKPPAMINNFGEEMNQITYQAIRIAREQPERLKLLRKALFDVVLAFDQKEYADVGDLYRDLAQKNS
- binding: binds
